{"sequences": {"note": "Sequences of proteins named here, by UniProt entry; tags and fusion partners are left off. A change or cut given only in a name is not applied to a line headed by its entry. Residues count along the entry.", "UniProt P06213, residues 28-1382": "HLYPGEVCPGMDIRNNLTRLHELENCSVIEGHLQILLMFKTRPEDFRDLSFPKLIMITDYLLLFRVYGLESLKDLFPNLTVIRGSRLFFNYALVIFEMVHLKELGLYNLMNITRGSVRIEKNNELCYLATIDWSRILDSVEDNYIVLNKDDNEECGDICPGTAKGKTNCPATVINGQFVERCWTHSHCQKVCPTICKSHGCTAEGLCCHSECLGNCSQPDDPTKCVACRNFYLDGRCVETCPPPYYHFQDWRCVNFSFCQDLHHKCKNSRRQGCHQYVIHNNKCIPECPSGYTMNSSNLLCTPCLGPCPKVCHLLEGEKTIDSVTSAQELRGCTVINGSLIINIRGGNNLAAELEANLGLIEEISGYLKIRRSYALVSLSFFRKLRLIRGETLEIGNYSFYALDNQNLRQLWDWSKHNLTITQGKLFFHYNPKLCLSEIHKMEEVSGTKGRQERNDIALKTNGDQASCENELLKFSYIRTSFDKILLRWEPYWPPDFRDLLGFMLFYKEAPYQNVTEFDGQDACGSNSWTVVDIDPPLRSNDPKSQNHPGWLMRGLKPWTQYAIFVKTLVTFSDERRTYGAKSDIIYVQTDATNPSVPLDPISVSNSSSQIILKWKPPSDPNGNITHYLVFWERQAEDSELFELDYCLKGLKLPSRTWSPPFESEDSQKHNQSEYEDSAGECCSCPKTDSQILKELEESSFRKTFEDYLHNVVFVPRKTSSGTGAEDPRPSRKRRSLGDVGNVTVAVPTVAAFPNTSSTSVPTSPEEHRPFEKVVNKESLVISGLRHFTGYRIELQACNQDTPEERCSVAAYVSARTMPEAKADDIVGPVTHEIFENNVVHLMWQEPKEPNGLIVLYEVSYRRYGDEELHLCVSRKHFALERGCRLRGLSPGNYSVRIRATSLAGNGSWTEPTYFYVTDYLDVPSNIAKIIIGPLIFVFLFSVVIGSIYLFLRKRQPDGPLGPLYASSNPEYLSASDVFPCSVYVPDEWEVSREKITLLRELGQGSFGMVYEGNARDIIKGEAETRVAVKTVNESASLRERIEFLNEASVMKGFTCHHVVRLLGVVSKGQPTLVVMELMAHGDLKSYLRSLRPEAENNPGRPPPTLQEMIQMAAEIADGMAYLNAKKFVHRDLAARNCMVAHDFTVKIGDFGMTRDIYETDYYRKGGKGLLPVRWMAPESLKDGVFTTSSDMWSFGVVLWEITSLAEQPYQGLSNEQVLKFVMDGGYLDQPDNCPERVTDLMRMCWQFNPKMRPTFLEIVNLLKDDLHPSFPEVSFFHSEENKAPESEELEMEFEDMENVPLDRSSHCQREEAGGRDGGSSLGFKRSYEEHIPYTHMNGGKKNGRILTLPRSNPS", "UniProt P06748": "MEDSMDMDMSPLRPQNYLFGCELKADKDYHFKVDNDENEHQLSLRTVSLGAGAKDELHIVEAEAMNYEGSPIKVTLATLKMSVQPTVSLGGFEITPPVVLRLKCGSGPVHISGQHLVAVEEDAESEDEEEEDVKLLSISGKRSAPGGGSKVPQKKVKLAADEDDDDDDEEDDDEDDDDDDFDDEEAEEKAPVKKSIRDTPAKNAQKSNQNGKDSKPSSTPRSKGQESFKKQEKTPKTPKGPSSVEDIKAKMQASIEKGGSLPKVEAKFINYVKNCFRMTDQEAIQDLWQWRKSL"}, "source": "paper PMC11162468", "key": {"[1]": {"target": "insulin receptor (IR) (human (endogenous in A549 and H226Br)) (UniProt P06213)", "experiment": "co-IP; A549 cells with IGF2; immunoprecipitants from 500 ug of nuclear extract using IR- or NPM1-targeting antibodies; endogenous proteins"}, "[2]": {"target": "FLAG-tagged full-length (FL) NPM1 (UniProt P06748)", "experiment": "co-IP; H226Br cells expressing FLAG-tagged NPM1 (FL, truncation or deletion mutants), stimulated with IGF2 for 3 h; IP with an anti-FLAG antibody"}}, "note": "Results are given in words; binding and its absence hold for the method and conditions named. Binding seen in cells or lysates may run through a third protein. Some binding calls cover weakened binding; strength is not graded here.", "data": [{"substance": "nucleophosmin (NPM1) (from UniProt P06748-1 1-294)", "values": [{"measurement": "binding", "setting": "[1]", "result": "binds"}]}, {"substance": "insulin receptor (IR) (from UniProt P06213-1 28-1382)", "values": [{"measurement": "binding", "setting": "[2]", "result": "binds"}]}]}
